Measurements: paper doi:10.1101/2021.01.08.425619
No constants are given. Whether binding was seen depends on the method and setting. Binding seen in cells or lysates may run through a third protein. These calls come from enrichment with a bait or labelling near it, and not all partners need be listed. Values belong to the binder of their own block, whether it stands above or below them.

Sequences of proteins named here, by UniProt entry; tags and fusion partners are left off.
UniProt P63168: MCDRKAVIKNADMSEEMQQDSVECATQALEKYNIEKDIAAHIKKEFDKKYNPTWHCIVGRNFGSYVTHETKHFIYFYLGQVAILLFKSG
UniProt Q24117: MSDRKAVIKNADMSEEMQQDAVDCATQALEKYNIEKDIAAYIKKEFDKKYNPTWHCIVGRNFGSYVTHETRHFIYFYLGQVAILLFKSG

Legend:
[1] = molecular target: Mouse LC8/Dynll1, endogenously tagged (mouse) (UniProt P63168); test: affinity purification with mass spectrometry
[2] = molecular target: FLAG-GFP tagged LC8 (Drosophila) (UniProt Q24117); test: affinity purification with mass spectrometry

binding [1]: binds
B1: Zmym2 (protein, UniProt Q9CU65 1-1376)
chain: MDTSSVGTLELTDQTPVLLGSTAMATSLTNVGNSFSGPPNPLVSRSSKFQNSSVEDDDDVVFIEPVQPPPSSAPLVADQRPITFTSSKNEELQGNDPKILPSSKELAPQKGSVSETIVIDDEEDMETNQGQEKSSSNFIERRPSETKNRTNDVDFSSSTFSRSKVNAGVSNSGITTEPDSEIQIANVTTLETGVSSVSDGQLESTDGRDMNLMITHVTSLHNTSLGDGSNGLQSSNFGVNIQTYTPSLTSQTKAGVGPFNPGRMNVAGDVFQNGESAPHHNPDSWISQSASFPRNQKQQGVDSLSPVASLPKQIFQPSNQQPTKPVKVTCANCKKPLQKGQTAYQRKGSAHLFCSTTCLSSFSHKPAPKKLCVMCKKDITTMKGTIVAQVDSSESFQEFCSTSCLSLYEDKQSPAKGALNKSRCTICGKLTEIRHEVSFKNMTHKLCSDHCFNRYRMANGLIMNCCEQCGEYLPSKGAGNNVLVVDGQQKRFCCQSCVTEYKQVGSHPSFLKEVRDHMQDSFLMQPEKYGKLTTCTGCRTQCRFFDMTQCIGPNGYMEPYCSTACMNSHKTKYAKSQSLGIICHFCKRNSLPQYQATMPDGKLYNFCNSSCVAKFQALSMQSSPNGQFVAPSDIQLKCNYCKNSFCSKPEILEWENKVHQFCSKTCSDDYKKLHCIVTYCEYCQEEKTLHETVNFSGVKRPFCSEGCKLLYKQDFARRLGLRCVTCNYCSQLCKKGATKELDGVVRDFCSEDCCKKFQEWYYKAARCDCCKSQGTLKERVQWRGEMKHFCDQHCLLRFYCQQNEPNMTTQKGPENLHYDQGCQTSRTKMTGSAPPPSPTPNKEMKNKAILCKPLTMTKATYCKPHMQTKSCQTDENWKTEYVPVPIPVPVYVPVPMHMYSQNIPVPTTVPVPVPVPVFLPAPLDSSEKIPATVEDLKSKVSSDPLDSELLTMTDMMTEEEGKAEASNINSVIIETDIIGSDLTKNSDPDIQSNMPDVPYEPDLDIEIDFPRAAEELDMENEFLLPPVFGEEYEEQPRPRSKKKGTKRKAVSGYQSHDDSSDNSECSFPFKYTYGVNAWKHWVKTRQLDEDLLVLDELKSSKSVKLKEDLLSHTTAELNYGLAHFVNEIRRPNGENYAPDSIYYLCLGIQEYLCGSNRKDNIFIDPGYQMFEQELNKILRSWQPSILPDGSIFSRVEEDYLWRIKQLGSHSPVALLNTLFYFNTKYFGLKTVEQHLRLSFGTVFRHWKKNPLTMENKACLRYQVSSLCGTDNEDKIATGKRKHEDDEPVFEQVENTANPSRCPVKMFECYLSKSPQNLNQRMDVFYLQPECSSSTDSPVWYTSTSLDRNTLENMLVRVLLVKDIYDKDNYELDEDTD

binding [2]: binds
B2: Sw (protein, UniProt Q24246 1-663)
chain: MDRKAELERKKAKLAALREEKDRRRREKEIKDMEEAAGRIGGGAGIDKDQRKDLDEMLSSLGVAPVSEVLSSLSSVNSMTSDNSNTQTPDASLQATVNGQSGGKKQPLNLSVYNVQATNIPPKETLVYTKQTQTTSTGGGNGDVLSCHSSPLSGYMEDWWRPRKAHATDYYDEYNLNPGLEWEDEFTDDEESSLQNLGNGFTSKLPPGYLTHGLPTVKDVAPAITPLEIKKETEVKKEVNELSEEQKQMIILSENFQRFVVRAGRVIERALSENVDIYTDYIGGGDSEEANDERSHARLSLNRVFYDERWSKNRCITSMDWSTHFPELVVGSYHNNEESPNEPDGVVMVWNTKFKKSTPEDVFHCQSAVMSTCFAKFNPNLILGGTYSGQIVLWDNRVQKRTPIQRTPLSAAAHTHPVYCLQMVGTQNAHNVISISSDGKLCSWSLDMLSQPQDTLELQQRQSKAIAITSMAFPANEINSLVMGSEDGYVYSASRHGLRSGVNEVYERHLGPITGISTHYNQLSPDFGHLFLTSSIDWTIKLWSLKDTKPLYSFEDNSDYVMDVAWSPVHPALFAAVDGSGRLDLWNLNQDTEVPTASIVVAGAPALNRVSWTPSGLHVCIGDEAGKLYVYDVAENLAQPSRDEWSRFNTHLSEIKMNQSDEV

binding [2]: binds
B3: Ana2 (protein, UniProt Q9XZ31 1-420)
chain: MFVPETEDMLPRLAPRPSAAVPMGHTNEIIGPTVPEVSILFGQPPQDPQMQPQQPNHAHQESSPRAAPTFASWKKQMLPRVNFSPILATELGPRTAPSSNSPCSSKEYQVMPRDRNYASDAQQTTNHMNCNAGGYNAEPKQQAYQSRRLSSSSNADVLTICAGTQTDPFNPSPPRKSLPQVVYSDIDVSNLANKSDLAALVSLVESVRHEQQQLRNLCEMILEQQQRAKPEAISKASSTTGTQCDILTTNQAGRRLSPIMQDYIAEEEEPLPPPQARVIPQFPSPRPHPPIAQSTGYRANTPQAKRIPQLAKPNTEKSMVMNELALKYLRQPVDELMKDMRLGASPKSPNPEPLRPIDNIGHAQSPNDISNASYKYLKKYRLLPEEQLEPVCPQSPMAATAPSPHIQLDLENIRNQPKLL

binding [2]: binds
B4: Dlc90F (protein, UniProt Q94524 1-111)
chain: MDDSREESQFIVDDVSKTIKEAIETTIGGNAYQHDKVNNWTGQVVENCLTVLTKEQKPYKYIVTAMIMQKNGAGLHTASSCYWNNDTDGSCTVRWENKTMYCIVSVFGLAV
